Source: the supplement of paper PMC12819154, “High-throughput peptide-centric local stability assay extends protein–ligand identification to membrane proteins, tissues and bacteria” (Nature Structural & Molecular Biology, 2025)
Some of the results follow. Most values lie at the level of the controls, where differences are scatter.

By UniProt entry, the sequences of proteins in these tests, tags left out. Where a name states a change or a piece, a line headed by the entry shows the natural chain unless it says otherwise.
UniProt P13693: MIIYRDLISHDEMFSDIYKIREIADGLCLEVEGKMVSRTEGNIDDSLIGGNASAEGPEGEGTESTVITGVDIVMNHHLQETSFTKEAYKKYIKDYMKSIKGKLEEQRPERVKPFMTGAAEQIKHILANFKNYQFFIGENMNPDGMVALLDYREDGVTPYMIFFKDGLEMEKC
UniProt P24844: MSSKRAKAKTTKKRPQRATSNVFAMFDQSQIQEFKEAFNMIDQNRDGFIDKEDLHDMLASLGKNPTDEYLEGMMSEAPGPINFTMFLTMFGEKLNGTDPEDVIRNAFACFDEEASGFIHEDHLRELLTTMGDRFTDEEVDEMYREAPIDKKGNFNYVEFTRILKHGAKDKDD
UniProt P19838: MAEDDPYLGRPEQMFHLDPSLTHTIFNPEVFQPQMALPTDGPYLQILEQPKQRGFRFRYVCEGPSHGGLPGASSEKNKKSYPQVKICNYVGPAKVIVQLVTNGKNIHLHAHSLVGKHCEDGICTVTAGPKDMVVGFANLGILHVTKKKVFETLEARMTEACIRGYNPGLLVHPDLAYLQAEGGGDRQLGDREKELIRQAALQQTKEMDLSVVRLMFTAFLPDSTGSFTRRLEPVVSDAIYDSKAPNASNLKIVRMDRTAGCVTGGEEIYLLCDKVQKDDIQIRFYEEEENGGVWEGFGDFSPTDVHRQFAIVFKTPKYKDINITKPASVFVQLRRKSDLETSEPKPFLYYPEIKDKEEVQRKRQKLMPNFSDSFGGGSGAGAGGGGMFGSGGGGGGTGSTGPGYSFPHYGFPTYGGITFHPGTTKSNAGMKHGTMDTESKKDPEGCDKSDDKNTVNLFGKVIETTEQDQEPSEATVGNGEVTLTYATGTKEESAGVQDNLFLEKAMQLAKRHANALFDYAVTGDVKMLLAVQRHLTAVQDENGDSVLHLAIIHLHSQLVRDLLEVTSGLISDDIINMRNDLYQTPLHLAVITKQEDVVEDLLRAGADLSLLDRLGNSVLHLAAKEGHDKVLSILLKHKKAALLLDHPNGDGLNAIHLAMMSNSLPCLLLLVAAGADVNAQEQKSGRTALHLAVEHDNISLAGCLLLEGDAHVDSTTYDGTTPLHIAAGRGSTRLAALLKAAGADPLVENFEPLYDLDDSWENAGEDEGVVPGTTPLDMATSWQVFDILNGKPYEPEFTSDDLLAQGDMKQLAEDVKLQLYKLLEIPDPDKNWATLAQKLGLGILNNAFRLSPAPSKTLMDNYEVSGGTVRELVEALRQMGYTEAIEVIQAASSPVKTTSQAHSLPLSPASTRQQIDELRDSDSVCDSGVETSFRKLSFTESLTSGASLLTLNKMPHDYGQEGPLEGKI
UniProt P15104, whole entry: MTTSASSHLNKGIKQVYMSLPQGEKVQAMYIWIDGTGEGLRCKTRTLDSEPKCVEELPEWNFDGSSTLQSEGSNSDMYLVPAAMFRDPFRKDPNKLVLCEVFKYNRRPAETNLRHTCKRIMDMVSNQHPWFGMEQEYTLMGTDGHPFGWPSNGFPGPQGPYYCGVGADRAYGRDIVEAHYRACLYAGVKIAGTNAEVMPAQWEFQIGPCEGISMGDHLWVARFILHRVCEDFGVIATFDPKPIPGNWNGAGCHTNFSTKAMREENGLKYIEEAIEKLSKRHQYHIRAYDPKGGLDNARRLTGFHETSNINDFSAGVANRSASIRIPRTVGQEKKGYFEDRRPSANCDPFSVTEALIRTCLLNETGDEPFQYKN
UniProt P19793: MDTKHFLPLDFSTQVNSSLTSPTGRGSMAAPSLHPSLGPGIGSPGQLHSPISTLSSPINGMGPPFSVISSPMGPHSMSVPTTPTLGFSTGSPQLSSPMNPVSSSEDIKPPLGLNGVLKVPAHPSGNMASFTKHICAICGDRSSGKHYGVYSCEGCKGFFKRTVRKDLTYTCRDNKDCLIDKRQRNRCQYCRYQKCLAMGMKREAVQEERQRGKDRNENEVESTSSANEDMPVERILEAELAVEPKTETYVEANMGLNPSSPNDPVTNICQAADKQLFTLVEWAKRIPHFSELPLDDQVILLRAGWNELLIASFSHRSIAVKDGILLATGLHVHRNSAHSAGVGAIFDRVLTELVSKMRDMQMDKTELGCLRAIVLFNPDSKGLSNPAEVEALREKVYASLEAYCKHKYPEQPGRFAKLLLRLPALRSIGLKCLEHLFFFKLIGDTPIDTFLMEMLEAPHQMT
UniProt P20674, whole entry: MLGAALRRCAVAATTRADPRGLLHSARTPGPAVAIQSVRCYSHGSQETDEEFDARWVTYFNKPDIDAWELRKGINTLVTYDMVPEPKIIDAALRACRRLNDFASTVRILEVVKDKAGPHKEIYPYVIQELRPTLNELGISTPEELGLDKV
UniProt P13995: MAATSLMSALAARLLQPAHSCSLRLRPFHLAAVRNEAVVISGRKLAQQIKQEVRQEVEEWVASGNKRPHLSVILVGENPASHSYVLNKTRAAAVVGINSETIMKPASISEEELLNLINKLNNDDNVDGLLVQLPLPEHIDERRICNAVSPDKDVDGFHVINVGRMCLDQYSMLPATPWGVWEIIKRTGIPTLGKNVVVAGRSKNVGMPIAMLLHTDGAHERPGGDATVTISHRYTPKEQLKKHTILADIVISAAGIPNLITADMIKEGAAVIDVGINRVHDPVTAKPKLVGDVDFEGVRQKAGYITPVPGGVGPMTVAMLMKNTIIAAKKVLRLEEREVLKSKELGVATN
UniProt P26358: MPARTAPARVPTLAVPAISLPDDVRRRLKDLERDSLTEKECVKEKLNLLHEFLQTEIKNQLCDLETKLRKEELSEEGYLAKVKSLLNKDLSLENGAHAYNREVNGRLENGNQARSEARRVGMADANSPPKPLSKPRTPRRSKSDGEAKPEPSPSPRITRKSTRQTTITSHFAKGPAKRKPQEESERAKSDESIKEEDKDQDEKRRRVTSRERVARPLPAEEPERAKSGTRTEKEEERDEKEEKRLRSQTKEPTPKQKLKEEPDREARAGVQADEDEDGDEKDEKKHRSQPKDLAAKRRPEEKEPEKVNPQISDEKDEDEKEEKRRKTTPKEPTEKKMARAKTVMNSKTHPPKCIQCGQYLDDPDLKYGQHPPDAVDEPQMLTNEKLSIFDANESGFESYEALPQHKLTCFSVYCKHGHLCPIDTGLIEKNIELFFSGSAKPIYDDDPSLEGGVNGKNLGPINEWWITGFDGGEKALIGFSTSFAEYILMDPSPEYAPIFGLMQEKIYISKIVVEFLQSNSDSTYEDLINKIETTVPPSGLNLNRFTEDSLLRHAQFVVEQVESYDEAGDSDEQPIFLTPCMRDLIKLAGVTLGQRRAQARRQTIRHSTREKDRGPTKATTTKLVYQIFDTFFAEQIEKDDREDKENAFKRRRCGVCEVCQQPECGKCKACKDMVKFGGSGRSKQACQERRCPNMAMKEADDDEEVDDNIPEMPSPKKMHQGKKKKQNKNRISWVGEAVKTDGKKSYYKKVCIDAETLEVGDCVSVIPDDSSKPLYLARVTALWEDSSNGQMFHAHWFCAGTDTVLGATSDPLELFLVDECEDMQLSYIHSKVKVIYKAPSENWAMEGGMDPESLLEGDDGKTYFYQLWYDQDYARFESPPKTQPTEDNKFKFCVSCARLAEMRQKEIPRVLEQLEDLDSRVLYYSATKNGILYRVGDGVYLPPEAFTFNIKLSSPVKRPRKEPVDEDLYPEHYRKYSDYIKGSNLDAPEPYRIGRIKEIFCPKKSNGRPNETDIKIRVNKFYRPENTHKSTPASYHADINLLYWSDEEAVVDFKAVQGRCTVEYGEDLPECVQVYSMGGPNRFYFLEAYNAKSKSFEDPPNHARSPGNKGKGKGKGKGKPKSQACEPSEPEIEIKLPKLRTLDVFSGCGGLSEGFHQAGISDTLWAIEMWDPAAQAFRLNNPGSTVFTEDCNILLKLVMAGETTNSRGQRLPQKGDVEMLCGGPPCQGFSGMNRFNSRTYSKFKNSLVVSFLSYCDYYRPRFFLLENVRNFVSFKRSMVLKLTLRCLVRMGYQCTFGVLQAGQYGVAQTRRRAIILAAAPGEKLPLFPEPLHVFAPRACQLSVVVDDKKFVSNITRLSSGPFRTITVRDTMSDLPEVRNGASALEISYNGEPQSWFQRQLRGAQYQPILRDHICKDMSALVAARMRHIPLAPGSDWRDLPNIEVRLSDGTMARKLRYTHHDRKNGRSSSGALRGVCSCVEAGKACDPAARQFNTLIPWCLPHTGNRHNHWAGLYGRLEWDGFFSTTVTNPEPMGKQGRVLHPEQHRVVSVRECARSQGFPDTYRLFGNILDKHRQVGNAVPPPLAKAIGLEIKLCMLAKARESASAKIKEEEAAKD
UniProt P19338, whole entry: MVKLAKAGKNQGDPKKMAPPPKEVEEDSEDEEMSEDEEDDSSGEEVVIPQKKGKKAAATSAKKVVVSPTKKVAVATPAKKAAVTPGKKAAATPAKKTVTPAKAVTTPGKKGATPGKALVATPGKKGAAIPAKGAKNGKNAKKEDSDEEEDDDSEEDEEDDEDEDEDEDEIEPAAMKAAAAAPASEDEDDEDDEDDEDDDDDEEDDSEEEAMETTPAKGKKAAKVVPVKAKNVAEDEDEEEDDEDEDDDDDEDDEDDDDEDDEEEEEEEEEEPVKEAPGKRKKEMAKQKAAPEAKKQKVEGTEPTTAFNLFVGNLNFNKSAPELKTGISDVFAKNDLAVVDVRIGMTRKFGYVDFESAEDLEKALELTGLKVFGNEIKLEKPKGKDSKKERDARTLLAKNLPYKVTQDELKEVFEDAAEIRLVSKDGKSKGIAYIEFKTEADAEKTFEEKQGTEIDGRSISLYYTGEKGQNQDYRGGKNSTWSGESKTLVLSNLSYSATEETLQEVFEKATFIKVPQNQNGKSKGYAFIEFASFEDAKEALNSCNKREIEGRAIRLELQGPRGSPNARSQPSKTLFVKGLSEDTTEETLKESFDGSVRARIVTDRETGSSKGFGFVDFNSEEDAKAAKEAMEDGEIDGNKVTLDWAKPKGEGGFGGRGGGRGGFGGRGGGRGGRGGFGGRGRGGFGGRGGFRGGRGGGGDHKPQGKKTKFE
UniProt P23526: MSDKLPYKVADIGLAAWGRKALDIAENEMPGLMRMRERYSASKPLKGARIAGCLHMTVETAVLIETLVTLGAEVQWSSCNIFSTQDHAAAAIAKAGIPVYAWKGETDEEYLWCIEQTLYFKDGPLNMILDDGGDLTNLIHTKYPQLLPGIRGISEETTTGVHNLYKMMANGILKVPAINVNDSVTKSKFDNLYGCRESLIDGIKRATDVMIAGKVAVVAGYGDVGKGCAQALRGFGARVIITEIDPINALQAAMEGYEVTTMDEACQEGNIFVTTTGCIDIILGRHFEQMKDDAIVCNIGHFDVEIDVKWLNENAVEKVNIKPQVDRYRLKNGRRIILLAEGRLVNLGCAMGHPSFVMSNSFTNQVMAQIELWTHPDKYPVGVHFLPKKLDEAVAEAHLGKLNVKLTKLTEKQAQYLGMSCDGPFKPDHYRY
UniProt P25788: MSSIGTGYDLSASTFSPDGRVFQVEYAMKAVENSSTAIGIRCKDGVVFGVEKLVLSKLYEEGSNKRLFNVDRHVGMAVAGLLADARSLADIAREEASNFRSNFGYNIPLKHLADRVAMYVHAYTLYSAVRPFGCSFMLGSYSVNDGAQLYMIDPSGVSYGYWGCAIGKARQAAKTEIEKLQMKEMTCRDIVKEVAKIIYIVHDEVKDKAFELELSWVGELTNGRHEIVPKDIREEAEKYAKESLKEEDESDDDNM
UniProt P26045: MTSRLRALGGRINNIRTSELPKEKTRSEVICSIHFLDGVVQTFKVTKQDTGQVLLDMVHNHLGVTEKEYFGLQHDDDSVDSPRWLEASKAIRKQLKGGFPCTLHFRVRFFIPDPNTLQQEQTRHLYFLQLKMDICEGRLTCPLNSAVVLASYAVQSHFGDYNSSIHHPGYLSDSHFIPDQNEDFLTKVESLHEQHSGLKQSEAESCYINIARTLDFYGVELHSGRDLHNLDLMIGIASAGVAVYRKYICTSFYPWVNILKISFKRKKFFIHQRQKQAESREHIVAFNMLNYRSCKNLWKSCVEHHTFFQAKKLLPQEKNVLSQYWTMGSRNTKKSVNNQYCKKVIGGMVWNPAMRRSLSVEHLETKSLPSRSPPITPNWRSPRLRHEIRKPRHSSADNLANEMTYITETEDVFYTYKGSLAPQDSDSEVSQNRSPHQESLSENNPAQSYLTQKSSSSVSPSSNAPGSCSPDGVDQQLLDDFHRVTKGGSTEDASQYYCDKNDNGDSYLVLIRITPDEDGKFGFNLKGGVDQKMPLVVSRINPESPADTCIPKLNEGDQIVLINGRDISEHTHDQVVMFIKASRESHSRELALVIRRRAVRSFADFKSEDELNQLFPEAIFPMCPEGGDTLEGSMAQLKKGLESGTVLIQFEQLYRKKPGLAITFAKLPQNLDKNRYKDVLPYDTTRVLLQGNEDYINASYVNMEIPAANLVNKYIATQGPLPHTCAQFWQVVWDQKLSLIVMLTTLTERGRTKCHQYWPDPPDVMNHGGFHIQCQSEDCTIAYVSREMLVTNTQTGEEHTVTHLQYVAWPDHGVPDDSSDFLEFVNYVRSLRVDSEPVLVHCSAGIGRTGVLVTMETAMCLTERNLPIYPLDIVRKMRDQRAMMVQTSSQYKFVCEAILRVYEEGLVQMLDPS

Compound: CN[C@@H]1C[C@H]2O[C@@](C)([C@@H]1OC)n1c3ccccc3c3c4c(c5c6ccccc6n2c5c31)C(=O)NC4 [staurosporine]
Assay: log2 fold change of tryptic peptide abundance, ligand vs vehicle (limited proteolysis) (log2 ratio); higher = more trypsin-susceptible (destabilized)
Settings: ligand concentration: 20 uM; sample: K562 cleared lysate; digestion: 4 min, 22 C (HT-PELSA RT4min, Orbitrap Astral)

Target	log2 fold change
MPST (peptide sequence: SQPAPAEFR, peptide start residue: 147) (UniProt P25325)	0.408
RPL35A (peptide sequence: VMLYPSRI, peptide start residue: 103) (UniProt P18077)	0.469
TPT1 (peptide sequence: YIKDYMK, peptide start residue: 91) (UniProt P13693)	0.199
PSMA1 (peptide sequence: AQSELAAHQKK, peptide start residue: 52) (UniProt P25786)	0.273
UniProt P24844 (peptide sequence: ELLTTMGDR, peptide start residue: 125)	-0.103
NFKB1 (peptide sequence: SDDKNTVNLFGK, peptide start residue: 449) (UniProt P19838)	-0.404
GLUL (peptide sequence: AYDPKGGLDNAR, peptide start residue: 287) (UniProt P15104)	0.432
PLCG1 (peptide sequence: NMLSQVNYR, peptide start residue: 179) (UniProt P19174)	0.19
RAB6A (peptide sequence: SREDMIDIK, peptide start residue: 184) (UniProt P20340)	-0.0578
ZNF8 (peptide sequence: EAPVQDQGYK, peptide start residue: 165) (UniProt P17098)	-0.693
RCC1 (peptide sequence: SGQVYSFGCNDEGALGR, peptide start residue: 85) (UniProt P18754)	-0.289
CCDC130 (peptide sequence: LEHGEADR, peptide start residue: 149) (UniProt P13994)	-0.159
RXRA (peptide sequence: IPHFSELPLDDQVILLR, peptide start residue: 286) (UniProt P19793)	0.271
ARNT (peptide sequence: QQQQQTELDMVPGR, peptide start residue: 503) (UniProt P27540)	-0.344
COX5A (peptide sequence: ILEVVKDKAGPHK, peptide start residue: 108) (UniProt P20674)	0.452
MTHFD2 (peptide sequence: SKELGVATN, peptide start residue: 342) (UniProt P13995)	-0.178
UniProt P21127 (peptide sequence: SEIDQINK, peptide start residue: 642)	-0.492
DNMT1 (peptide sequence: FKNSLVVSFLSYCDYYRPR, peptide start residue: 1243) (UniProt P26358)	1.01
GLB1 (peptide sequence: MFEIDYSR, peptide start residue: 31) (UniProt P16278)	0.0787
NCL (peptide sequence: KAAATPAKK, peptide start residue: 88) (UniProt P19338)	0.278
AHCY (peptide sequence: GISEETTTGVHNLYK, peptide start residue: 152) (UniProt P23526)	-0.518
ITPKA (peptide sequence: TLPGGPTGMAR, peptide start residue: 2) (UniProt P23677)	0.204
TRIM21 (peptide sequence: SVCHVPGLKK, peptide start residue: 271) (UniProt P19474)	0.337
UniProt P17600 (peptide sequence: QASQAGPVPR, peptide start residue: 603)	-0.109
TCF4 (peptide sequence: MVQLHLK, peptide start residue: 590) (UniProt P15884)	0.443
ARSB (peptide sequence: GVGFVASPLLK, peptide start residue: 328) (UniProt P15848)	-0.307
PSMA3 (peptide sequence: AFELELSWVGELTNGRHEIVPK, peptide start residue: 209) (UniProt P25788)	-0.951
PTPN3 (peptide sequence: KSVNNQYCKK, peptide start residue: 334) (UniProt P26045)	-0.0316
RAB4A (peptide sequence: MGSGIQYGDAALR, peptide start residue: 188) (UniProt P20338)	-0.00139

Some of the entries so far, field by field.
DNMT1 (peptide sequence: FKNSLVVSFLSYCDYYRPR, peptide start residue: 1243) (UniProt P26358)
  log2 fold change: 1.01
GLB1 (peptide sequence: MFEIDYSR, peptide start residue: 31) (UniProt P16278)
  log2 fold change: 0.0787
